The target of the test is T1, FLAG–HA tagged Prdm14 (FH-Prdm14), stably expressed in mESCs (mouse) (UniProt E9Q3T6).
T1 sequence: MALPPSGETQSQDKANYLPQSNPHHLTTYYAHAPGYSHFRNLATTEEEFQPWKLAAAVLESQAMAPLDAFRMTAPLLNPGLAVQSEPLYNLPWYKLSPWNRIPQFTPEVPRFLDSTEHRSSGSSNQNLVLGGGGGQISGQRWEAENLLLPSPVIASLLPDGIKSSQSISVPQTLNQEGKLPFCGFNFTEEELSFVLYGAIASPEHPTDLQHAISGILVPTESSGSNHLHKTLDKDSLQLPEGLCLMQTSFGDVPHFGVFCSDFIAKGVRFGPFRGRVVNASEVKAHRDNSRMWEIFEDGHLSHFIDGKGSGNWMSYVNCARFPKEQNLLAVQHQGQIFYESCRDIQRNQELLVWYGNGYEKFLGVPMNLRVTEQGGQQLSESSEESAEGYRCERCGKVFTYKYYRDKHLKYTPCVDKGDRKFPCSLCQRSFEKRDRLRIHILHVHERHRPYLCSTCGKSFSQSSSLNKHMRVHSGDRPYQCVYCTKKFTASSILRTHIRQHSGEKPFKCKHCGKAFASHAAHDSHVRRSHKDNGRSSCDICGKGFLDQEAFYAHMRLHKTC
Briefly: pull-down; proteins co-precipitated with Prdm14 that was captured by monobody on M280 streptavidin dynabeads from FH-Prdm14 or wt mESC extracts; Western blot.

Amino acid sequences for entries named in this document (tags omitted).
UniProt Q80U70: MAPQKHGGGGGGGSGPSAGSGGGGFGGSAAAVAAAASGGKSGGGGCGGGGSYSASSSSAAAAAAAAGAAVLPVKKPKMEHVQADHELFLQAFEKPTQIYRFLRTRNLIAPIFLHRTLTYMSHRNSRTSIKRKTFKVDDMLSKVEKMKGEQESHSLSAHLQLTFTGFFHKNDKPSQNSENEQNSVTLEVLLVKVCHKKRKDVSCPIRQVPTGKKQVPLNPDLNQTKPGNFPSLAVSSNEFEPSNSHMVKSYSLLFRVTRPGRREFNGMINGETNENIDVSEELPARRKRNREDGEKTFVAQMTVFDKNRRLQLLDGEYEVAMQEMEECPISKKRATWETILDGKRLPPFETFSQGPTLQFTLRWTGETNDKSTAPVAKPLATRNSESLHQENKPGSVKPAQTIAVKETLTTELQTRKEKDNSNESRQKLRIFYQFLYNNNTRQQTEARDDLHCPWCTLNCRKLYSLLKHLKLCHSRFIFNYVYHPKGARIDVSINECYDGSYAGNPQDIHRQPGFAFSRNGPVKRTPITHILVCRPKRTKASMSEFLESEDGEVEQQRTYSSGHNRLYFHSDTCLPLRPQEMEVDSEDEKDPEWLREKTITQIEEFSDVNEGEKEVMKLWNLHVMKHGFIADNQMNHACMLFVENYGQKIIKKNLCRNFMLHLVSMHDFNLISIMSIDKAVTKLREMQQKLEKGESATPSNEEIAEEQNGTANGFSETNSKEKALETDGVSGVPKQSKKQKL

Results are given in words; binding and its absence hold for the method and conditions named. Binding seen in cells or lysates may run through a third protein. Tags and fused reporters may be left off the sequences shown.

For the substance “Suz12, endogenous in mESCs (from UniProt Q80U70 1-741)”, the binding entry is on record as “no binding”.

For the origin of these results see PMC4749557.
